No constants are given. Whether binding was seen depends on the method and setting. Binding seen in cells or lysates may run through a third protein. Here binding means that the protein was enriched with, or labelled near, the bait; the list need not be complete. Where a sequence is shown, tags or fusion partners need not be part of it.
T1: FLAG-tagged R54C αA-crystallin expressed in SRA 01/04 cells (human) (UniProt P02489)
T1 sequence: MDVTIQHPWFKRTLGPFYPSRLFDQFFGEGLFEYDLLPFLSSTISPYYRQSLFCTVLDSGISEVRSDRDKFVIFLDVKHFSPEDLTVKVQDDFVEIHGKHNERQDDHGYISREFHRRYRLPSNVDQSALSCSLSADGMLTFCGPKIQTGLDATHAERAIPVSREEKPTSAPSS

Amino acid sequences for entries named in this document (tags omitted).
UniProt P15924: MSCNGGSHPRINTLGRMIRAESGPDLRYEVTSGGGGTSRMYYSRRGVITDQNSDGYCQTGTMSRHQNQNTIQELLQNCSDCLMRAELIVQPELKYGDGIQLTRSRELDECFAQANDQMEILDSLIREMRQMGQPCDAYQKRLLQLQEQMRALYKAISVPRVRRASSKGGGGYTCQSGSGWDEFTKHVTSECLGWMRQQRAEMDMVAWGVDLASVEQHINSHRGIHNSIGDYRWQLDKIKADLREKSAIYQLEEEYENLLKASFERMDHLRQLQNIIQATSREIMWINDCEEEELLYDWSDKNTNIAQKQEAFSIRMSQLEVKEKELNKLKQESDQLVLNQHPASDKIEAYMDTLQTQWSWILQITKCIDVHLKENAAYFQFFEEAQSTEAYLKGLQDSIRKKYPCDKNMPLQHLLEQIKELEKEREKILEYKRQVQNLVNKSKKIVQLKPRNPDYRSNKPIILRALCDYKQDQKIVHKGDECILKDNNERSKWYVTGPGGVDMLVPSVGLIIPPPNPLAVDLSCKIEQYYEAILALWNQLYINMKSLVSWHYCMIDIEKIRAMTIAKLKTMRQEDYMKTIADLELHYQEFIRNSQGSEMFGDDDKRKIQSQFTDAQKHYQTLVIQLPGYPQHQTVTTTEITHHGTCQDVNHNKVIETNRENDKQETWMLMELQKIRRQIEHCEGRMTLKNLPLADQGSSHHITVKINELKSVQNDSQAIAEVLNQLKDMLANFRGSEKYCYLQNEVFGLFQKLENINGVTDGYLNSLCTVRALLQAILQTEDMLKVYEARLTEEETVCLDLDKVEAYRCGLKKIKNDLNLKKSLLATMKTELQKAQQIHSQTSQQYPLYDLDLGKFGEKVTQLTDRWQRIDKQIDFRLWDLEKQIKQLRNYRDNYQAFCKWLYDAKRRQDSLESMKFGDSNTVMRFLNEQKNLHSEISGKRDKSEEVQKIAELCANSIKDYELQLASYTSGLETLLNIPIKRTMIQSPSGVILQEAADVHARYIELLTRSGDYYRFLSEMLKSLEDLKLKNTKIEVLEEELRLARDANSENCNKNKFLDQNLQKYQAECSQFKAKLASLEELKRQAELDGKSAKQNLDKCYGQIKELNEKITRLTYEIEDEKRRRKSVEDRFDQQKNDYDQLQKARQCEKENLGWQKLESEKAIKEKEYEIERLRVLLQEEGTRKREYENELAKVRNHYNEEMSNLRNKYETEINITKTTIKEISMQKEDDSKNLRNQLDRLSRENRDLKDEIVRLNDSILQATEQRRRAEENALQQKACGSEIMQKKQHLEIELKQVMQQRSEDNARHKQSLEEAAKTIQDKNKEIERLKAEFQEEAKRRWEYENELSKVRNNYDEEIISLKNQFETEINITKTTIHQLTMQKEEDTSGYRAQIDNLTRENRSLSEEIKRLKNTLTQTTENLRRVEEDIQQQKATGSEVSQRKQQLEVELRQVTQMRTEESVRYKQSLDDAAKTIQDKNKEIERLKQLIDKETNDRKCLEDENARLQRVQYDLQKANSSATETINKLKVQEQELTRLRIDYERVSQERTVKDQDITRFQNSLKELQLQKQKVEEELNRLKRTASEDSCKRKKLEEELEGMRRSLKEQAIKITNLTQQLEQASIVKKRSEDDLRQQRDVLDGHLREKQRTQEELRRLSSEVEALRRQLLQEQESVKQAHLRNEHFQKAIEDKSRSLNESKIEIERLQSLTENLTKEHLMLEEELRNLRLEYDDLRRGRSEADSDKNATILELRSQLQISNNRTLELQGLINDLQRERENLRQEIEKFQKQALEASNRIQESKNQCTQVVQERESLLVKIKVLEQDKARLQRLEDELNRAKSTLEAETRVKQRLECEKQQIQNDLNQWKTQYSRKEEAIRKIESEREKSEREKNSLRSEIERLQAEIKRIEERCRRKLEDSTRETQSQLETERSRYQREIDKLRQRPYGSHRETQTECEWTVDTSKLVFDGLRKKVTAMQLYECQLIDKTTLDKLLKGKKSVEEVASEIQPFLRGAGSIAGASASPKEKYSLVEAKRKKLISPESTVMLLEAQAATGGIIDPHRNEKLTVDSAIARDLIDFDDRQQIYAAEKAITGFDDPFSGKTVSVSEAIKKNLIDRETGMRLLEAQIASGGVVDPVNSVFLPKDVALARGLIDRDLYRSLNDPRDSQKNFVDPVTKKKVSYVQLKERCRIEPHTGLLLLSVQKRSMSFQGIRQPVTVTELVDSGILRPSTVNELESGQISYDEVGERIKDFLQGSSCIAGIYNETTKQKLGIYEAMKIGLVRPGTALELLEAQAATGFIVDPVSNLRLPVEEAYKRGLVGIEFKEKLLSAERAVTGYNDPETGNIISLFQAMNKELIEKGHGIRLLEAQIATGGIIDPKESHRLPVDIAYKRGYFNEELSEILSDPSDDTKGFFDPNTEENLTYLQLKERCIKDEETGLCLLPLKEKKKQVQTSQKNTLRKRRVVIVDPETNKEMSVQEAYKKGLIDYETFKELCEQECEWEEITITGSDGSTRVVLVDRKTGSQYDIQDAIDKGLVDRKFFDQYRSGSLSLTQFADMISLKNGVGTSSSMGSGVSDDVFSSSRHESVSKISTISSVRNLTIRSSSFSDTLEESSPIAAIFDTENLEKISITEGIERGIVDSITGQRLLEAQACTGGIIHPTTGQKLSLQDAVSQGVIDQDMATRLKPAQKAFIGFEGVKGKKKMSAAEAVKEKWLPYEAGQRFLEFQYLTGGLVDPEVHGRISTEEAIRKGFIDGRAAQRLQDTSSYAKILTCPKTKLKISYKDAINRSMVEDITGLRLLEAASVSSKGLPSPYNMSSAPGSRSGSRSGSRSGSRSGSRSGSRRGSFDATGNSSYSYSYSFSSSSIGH


target: T1, FLAG-tagged R54C αA-crystallin expressed in SRA 01/04 cells (human); experiment: affinity purification with mass spectrometry

Row | Molecule | binding
1 | desmoglein (human (endogenous in SRA 01/04)) | binds
2 | desmoplakin (from UniProt P15924 1-2871) | binds
3 | plakoglobin (protein, UniProt P14923 1-745) MEVMNLMEQPIKVTEWQQTYTYDSGIHSGANTCVPSVSSKGIMEEDEACGRQYTLKKTTTYTQGVPPSQGDLEYQMSTTARAKRVREAMCPGVSGEDSSLLLATQVEGQATNLQRLAEPSQLLKSAIVHLINYQDDAELATRALPELTKLLNDEDPVVVTKAAMIVNQLSKKEASRRALMGSPQLVAAVVRTMQNTSDLDTARCTTSILHNLSHHREGLLAIFKSGGIPALVRMLSSPVESVLFYAITTLHNLLLYQEGAKMAVRLADGLQKMVPLLNKNNPKFLAITTDCLQLLAYGNQESKLIILANGGPQALVQIMRNYSYEKLLWTTSRVLKVLSVCPSNKPAIVEAGGMQALGKHLTSNSPRLVQNCLWTLRNLSDVATKQEGLESVLKILVNQLSVDDVNVLTCATGTLSNLTCNNSKNKTLVTQNSGVEALIHAILRAGDKDDITEPAVCALRHLTSRHPEAEMAQNSVRLNYGIPAIVKLLNQPNQWPLVKATIGLIRNLALCPANHAPLQEAAVIPRLVQLLVKAHQDAQRHVAAGTQQPYTDGVRMEEIVEGCTGALHILARDPMNRMEIFRLNTIPLFVQLLYSSVENIQRVAAGVLCELAQDKEAADAIDAEGASAPLMELLHSRNEGTATYAAAVLFRISEDKNPDYRKRVSVELTNSLFKHDPAAWEAAQSMIPINEPYGDDMDATYRPMYSSDVPLDPLEMHMDMDGDYPIDTYSDGLRPPYPTADHMLA | binds

Source: article doi:10.1101/2020.07.03.182295 (bioRxiv, 2020)
